# Laboratory results: the supplement of paper PMC3334620
# Over roughly 33,000 sequences, “E-score (-0.5 to 0.5)” has its median near -0.015; the highest 2% begin near 0.3. This is one part of the list.
# Molecular target: T1, Abf1 (UniProt P14164)
# T1 sequence: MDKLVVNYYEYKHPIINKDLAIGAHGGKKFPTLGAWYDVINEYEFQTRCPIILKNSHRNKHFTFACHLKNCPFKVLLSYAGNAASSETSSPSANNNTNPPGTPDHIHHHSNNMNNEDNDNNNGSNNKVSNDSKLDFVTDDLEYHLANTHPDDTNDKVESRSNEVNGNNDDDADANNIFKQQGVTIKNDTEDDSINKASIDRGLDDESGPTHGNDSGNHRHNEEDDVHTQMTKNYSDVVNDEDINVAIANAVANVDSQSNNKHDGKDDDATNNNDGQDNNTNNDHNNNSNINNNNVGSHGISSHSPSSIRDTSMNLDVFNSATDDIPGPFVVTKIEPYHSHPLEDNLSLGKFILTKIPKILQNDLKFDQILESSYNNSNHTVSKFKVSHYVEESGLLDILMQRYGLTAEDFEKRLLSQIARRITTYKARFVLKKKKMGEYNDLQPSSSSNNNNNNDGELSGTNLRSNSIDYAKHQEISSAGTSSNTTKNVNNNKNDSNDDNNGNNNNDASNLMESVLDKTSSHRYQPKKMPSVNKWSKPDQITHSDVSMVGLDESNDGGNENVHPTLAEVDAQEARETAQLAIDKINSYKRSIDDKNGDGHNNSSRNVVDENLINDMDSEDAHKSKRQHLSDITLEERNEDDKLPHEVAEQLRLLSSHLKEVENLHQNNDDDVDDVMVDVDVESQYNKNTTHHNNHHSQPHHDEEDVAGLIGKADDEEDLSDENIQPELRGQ
# Assay: PBM E-score (8-mer binding enrichment) (E-score (-0.5 to 0.5)); higher = stronger / more preferred TF binding
# Conditions: protein concentration: 200 nM; construct: GST-full length
# Summary of the method: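 Universal all-10-mer Agilent arrays, double-stranded by primer extension on fresh or once-stripped slides, were probed with about 100-200 nM GST-tagged yeast transcription factors made by PURExpress. Fluorescent anti-GST detected bound protein, and masliner normalised the scans. E-scores from the Universal PBM Analysis Suite were given to each ungapped eight-base word pooled with its reverse complement.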
row,Sequence,PBM E-score
1,ATATTGGG,-0.0849
2,AGTTAACT,-0.0757
3,CATGTCAA,0.105
4,CAGGCCAA,-0.222
5,ATCTCAAC,0.196
6,CCCTATTA,-0.101
7,ACAGGGTG,-0.156
8,AGAGCGCG,-0.135
9,GACACAAC,0.0974
10,CCACGGTA,0.216
11,ACGCGCTG,-0.133
12,AATGGGGA,-0.106
13,GTCACCAA,0.189
14,TGGGGGAA,-0.433
15,CGAGCCTA,-0.16
16,AAGAGTTA,-0.146
17,AATGGGCG,-0.233
18,AAACAGTA,0.0722
19,GCATATGA,0.028
20,CATACCGC,0.0472
21,CCTTTAGC,-0.0196
22,CTGCACGA,0.303

# Look-ups from the list.
# PBM E-score, AATGGGGA reads -0.106
# PBM E-score, TGGGGGAA reads -0.433

# Additional entries:

row,Sequence,PBM E-score
1,AAACGTTT,0.218
2,ACCGATCC,-0.0259
3,AGCTCGTG,0.101
4,GCCTCCAC,-0.207
5,ACCCGTCC,-0.084
6,GAGGAGAC,-0.062
7,CTGTGCCC,-0.0311
8,AGTGTTCA,-0.11
9,ACGTGCTG,0.00737
10,AAGCGCGC,0.0416
11,GAAACCAA,-0.0399
12,CGATACGC,0.121
13,CCTCGATC,-0.122
14,TCCTAGAA,-0.106
15,ATAGGGCC,-0.242
16,TCCGGGCA,-0.0646
17,CCGAGTTC,0.121
18,AGCCTGTC,-0.215
19,CAAAATGC,0.0932
20,AGTGCACA,-0.0288
21,AATATGGC,0.0026
22,CCATGAGA,-0.00214

row,Sequence,PBM E-score
1,GCTATGTA,-0.0658
2,AGGGTTAT,0.0238
3,ACATTGGG,-0.0776
4,ATCAGTGG,-0.0831
5,GTGGGATA,-0.0357
6,CTAACGCC,-0.163
7,ACCAGGCA,-0.115
8,ATTCTACA,0.0795
9,AGAGGGCC,-0.202
10,AAATTGGG,0.0133
11,TACTTAGA,-0.024
12,CCTTACAG,-0.161
13,CCGCAGTC,-0.165
14,AGCTCTCC,-0.317
15,TACAACCA,-0.0973
16,CTTTTATA,-0.0671
17,ACGAATCC,0.25
18,GTTGCGGA,-0.144
19,CAGTAACA,0.0584
20,CCAAGCCC,-0.19
21,TTGATCAA,0.131
22,ACGGACGA,0.263

row,Sequence,PBM E-score
1,TAACCTGA,0.0671
2,AGCATCTG,-0.0435
3,ATGTTTTA,-0.0105
4,AGAGAGCC,-0.00227
5,CCGATACA,-0.05
6,CCCTCTGC,-0.216
7,AATCGGTC,-0.0478
8,CACAGTAG,-0.00072
9,CCATCTTA,-0.093
10,CGAGGGAG,-0.117
11,ACTAGTTG,-0.251
12,GTACAGAC,-0.0239
13,ATGCTGCG,-0.13
14,CTCAAACC,-0.13
15,AATGGCGG,-0.202
16,GATAACGA,0.145
17,GACTCGCA,-0.087
18,AGTCTGCA,-0.201
19,AAGTCTGG,-0.199
20,ATCATATG,0.0678
21,CAGCAGCA,-0.152
22,CACAATGA,-0.0928

# As a short view, part of the list above.
row,Sequence,PBM E-score
11,ACTAGTTG,-0.251
12,GTACAGAC,-0.0239

# Following part

row,Sequence,PBM E-score
1,CAAAATTG,0.018
2,CCCTCTAG,-0.0251
3,ATGTAGAG,-0.0334
4,ATCCATCG,0.0517
5,GACTGCGC,-0.0512
6,AGTCGGGA,-0.122
7,AACCCGGC,0.0104
8,CGGATGAA,0.211
9,CTTTAAAC,0.0651
10,GCTCTTCA,-0.0495
11,CATACTCA,-0.0369
12,TAGGGGCA,-0.146
13,ATAAAACA,0.107
14,ACCTCGTA,0.182
15,CGCCACAC,-0.0181
16,CCATAGCA,-0.193
17,AAGACCTC,-0.346
18,TCAGCCGA,-0.0123
19,ACCCATAG,-0.337
20,CTCAAGGA,-0.0647
21,AAGCGCTG,-0.216
